The list shows only some results of the screen, not a fair sample: it is rich in T/C values a quarter to a half above the control, in often repeated tests (any T/C) and in doses without a T/C. Other doses and runs of a compound stand elsewhere. T/C: endpoint of the treated group in % of that of the vehicle group. Some doses have a count of surviving animals in place of a T/C: the source files T/C as zero there, which appears to mark a toxic dose or a test without result, not a measured value. Some doses without a T/C left all or most animals alive at the check, yet need not have been tolerated: survival well below the control is almost never listed, so the zero probably covers shortened survival too. Survivors were counted at the toxicity check, usually on the fifth day, unless a day is given; later deaths do not show. Schedules are NCI's codes, read here as Q, the interval in days (D) or hours (H), X, the number of doses. Some entries were tested several times; the results are listed from low to high. For survival time, this PubChem deposit counts one and a half times the control or more as active, and values a quarter to a half above the control carry no call in these data; other NCI protocols may use other cut-offs. Some T/C values carry the count of animals alive at the toxicity check (mostly the fifth day); without a count, all were alive then.
Test system: P388 leukemia ip, CD2F1 mice, survival T/C
Test: NCI In Vivo Anticancer Drug Screen. Data for tumor model P388 Leukemia (intraperitoneal) in CD2F1 (CDF1) mice
Settings: T/C endpoint: median survival time, higher T/C = longer survival
[1] = dose: 50.0 mg/kg/injection, schedule: Q01DX009 (ip), vehicle: saline with Tween-80
[2] = dose: 100.0 mg/kg/injection, schedule: Q01DX009 (ip), vehicle: saline with Tween-80
[3] = dose: 200.0 mg/kg/injection, schedule: Q01DX009 (ip), vehicle: saline with Tween-80
[4] = dose: 12.5 mg/kg/injection, schedule: Q04DX003 (ip), vehicle: saline with Tween-80
[5] = dose: 200.0 mg/kg/injection, schedule: Q01DX009 (ip), vehicle: saline
[6] = dose: 240.0 mg/kg/injection, schedule: Q01DX005 (ip), vehicle: Klucel (hydroxypropylcellulose) (HPC)
[7] = dose: 100.0 mg/kg/injection, schedule: Q04DX003 (ip), vehicle: saline with Tween-80
[8] = dose: 200.0 mg/kg/injection, schedule: Q04DX003 (ip), vehicle: saline with Tween-80
[9] = dose: 400.0 mg/kg/injection, schedule: Q04DX003 (ip), vehicle: saline with Tween-80
[10] = dose: 50.0 mg/kg/injection, schedule: Q01DX009 (ip), vehicle: Klucel (hydroxypropylcellulose) (HPC)
[11] = dose: 100.0 mg/kg/injection, schedule: Q01DX005 (ip), vehicle: saline with Tween-80
[12] = dose: 200.0 mg/kg/injection, schedule: Q01DX005 (ip), vehicle: saline with Tween-80

With `Cc1ccc(C(SCC(N)C(=O)O)(c2ccccc2)c2ccccc2)cc1` (configuration not stated) the T/C (dose: 6.25 mg/kg/injection, schedule: Q01DX009 (ip), vehicle: saline with Tween-80) was 140 % of control, the survivor count [1] was 6 of 6 and the survivor count [2] was 6 of 6. For the same compound, the survivor count [3] was 6 of 6.

For `C=C(C)C(=O)Nc1ccc(NC(C)C)cc1`, the survivor count [2] was 2 of 6 and 3 of 6 and the survivor count [3] was 1 of 6.

In the case of `COc1cc2c(c(OC)c1OC)-c1ccc(OC)c(=O)cc1[C@@H](N(C)C(=O)C(F)(F)F)CC2`, the T/C (dose: 0.31 mg/kg/injection, schedule: Q01DX009 (ip), vehicle: Klucel (hydroxypropylcellulose) (HPC)) is reported as 126 % of control, the T/C (dose: 0.62 mg/kg/injection, schedule: Q01DX009 (ip), vehicle: Klucel (hydroxypropylcellulose) (HPC)) is reported as 135 and 139 % of control and the survivor count (dose: 2.5 mg/kg/injection, schedule: Q01DX009 (ip), vehicle: Klucel (hydroxypropylcellulose) (HPC)) is reported as 5 of 6 and 6 of 6. For the same compound, the survivor count (dose: 5.0 mg/kg/injection, schedule: Q01DX009 (ip), vehicle: Klucel (hydroxypropylcellulose) (HPC)) was 3 of 6 and the survivor count (dose: 10.0 mg/kg/injection, schedule: Q01DX009 (ip), vehicle: Klucel (hydroxypropylcellulose) (HPC)) was 0 of 6.

For `CC(C)(C#N)Nc1ccccc1`, the survivor count [4] was 0 of 6.

In the case of `O=C(NNC1CCN(Cc2ccccc2)CC1)c1ccccc1`, the survivor count (dose: 40.0 mg/kg/injection, schedule: Q04DX003 (ip), vehicle: saline with Tween-80) is reported as 2 of 6.

In the case of `O=C1CSC(=S)N1c1ccc(Cl)c([N+](=O)[O-])c1`, the survivor count (dose: 50.0 mg/kg/injection, schedule: Q01DX009 (ip), vehicle: suspension in saline) is reported as 5 of 6, the T/C (dose: 100.0 mg/kg/injection, schedule: Q01DX009 (ip), vehicle: saline) is reported as 128 % of control and the T/C [5] is reported as 128 % of control.

For `C=C1C(=O)OC2C1C(OC(=O)/C(=C/CO)CO)CC1(CO1)C1CC=C(C)C21` (configuration not stated), the T/C (dose: 7.5 mg/kg/injection, schedule: Q01DX005 (ip), vehicle: Klucel (hydroxypropylcellulose) (HPC)) was 126 % of control [5 of 6 alive], the survivor count (dose: 15.0 mg/kg/injection, schedule: Q01DX005 (ip), vehicle: Klucel (hydroxypropylcellulose) (HPC)) was 5 of 6 and the survivor count (dose: 30.0 mg/kg/injection, schedule: Q01DX005 (ip), vehicle: Klucel (hydroxypropylcellulose) (HPC)) was 0 of 6. For the same compound, the survivor count (dose: 60.0 mg/kg/injection, schedule: Q01DX005 (ip), vehicle: Klucel (hydroxypropylcellulose) (HPC)) was 0 of 6, the survivor count (dose: 120.0 mg/kg/injection, schedule: Q01DX005 (ip), vehicle: Klucel (hydroxypropylcellulose) (HPC)) was 0 of 6 and the survivor count [6] was 0 of 6.

In the case of `C[n+]1c(-c2cccc3ccccc23)c2cc(N)ccc2c2ccccc21`, the T/C (dose: 3.12 mg/kg/injection, schedule: Q01DX009 (ip), vehicle: saline) is reported as 129 % of control, the T/C (dose: 3.13 mg/kg/injection, schedule: Q01DX009 (ip), vehicle: water) is reported as 128 % of control and the T/C (dose: 5.3 mg/kg/injection, schedule: Q01DX009 (ip), vehicle: water) is reported as 131 % of control. The T/C (dose: 6.25 mg/kg/injection, schedule: Q01DX009 (ip), vehicle: water) was 132 % of control, the T/C (dose: 8.0 mg/kg/injection, schedule: Q01DX009 (ip), vehicle: water) was 134 % of control and the T/C (dose: 12.5 mg/kg/injection, schedule: Q01DX009 (ip), vehicle: water) was 142 % of control. The survivor count (dose: 18.0 mg/kg/injection, schedule: Q01DX009 (ip), vehicle: water) was 6 of 6 and the survivor count (dose: 25.0 mg/kg/injection, schedule: Q01DX009 (ip), vehicle: saline) was 4 of 6.

`NNC(=O)Cc1cccc2ccc(Cl)cc12` was tested, and the survivor count [6] was 5 of 6.

`Nc1cc2c(c[n+](CCCCCCCCCBr)c3ccccc23)c2ccccc12` was tested, and the T/C (dose: 0.78 mg/kg/injection, schedule: Q04DX003 (ip), vehicle: other) was 145 % of control, the T/C (dose: 1.56 mg/kg/injection, schedule: Q04DX003 (ip), vehicle: other) was 135 % of control and the T/C (dose: 3.13 mg/kg/injection, schedule: Q04DX003 (ip), vehicle: other) was 147 % of control. For the same compound, the survivor count (dose: 6.25 mg/kg/injection, schedule: Q04DX003 (ip), vehicle: other) was 6 of 6, the survivor count (dose: 12.5 mg/kg/injection, schedule: Q04DX003 (ip), vehicle: other) was 1 of 6 and 5 of 6 and the survivor count (dose: 25.0 mg/kg/injection, schedule: Q04DX003 (ip), vehicle: other) was 0 of 6.

`COc1cccc2c1C(=O)c1c(O)c3c(c(O)c1C2=O)C[C@@](O)(C(C)=O)C[C@@H]3OC1CC(N2CCOCC2C#N)C(O)C(C)O1` (some centres not stated) was tested, and the T/C (dose: 0.1 mg/kg/injection, schedule: Q04DX003 (ip), vehicle: water) was 131 % of control, the survivor count (dose: 0.78 mg/kg/injection, schedule: Q04DX003 (ip), vehicle: distilled water + Tween-80) was 6 of 6 on day 9 and the survivor count (dose: 1.56 mg/kg/injection, schedule: Q04DX003 (ip), vehicle: distilled water + Tween-80) was 2 of 6 on day 9. The survivor count (dose: 3.12 mg/kg/injection, schedule: Q04DX003 (ip), vehicle: distilled water + Tween-80) was 0 of 6 on day 9, the survivor count (dose: 6.25 mg/kg/injection, schedule: Q04DX003 (ip), vehicle: distilled water + Tween-80) was 0 of 6 on day 9 and the survivor count (dose: 12.5 mg/kg/injection, schedule: Q04DX003 (ip), vehicle: distilled water + Tween-80) was 0 of 6 on day 9.

For `O=NNc1cnc(-c2ccccc2)c(-c2ccccc2)n1`, the T/C (dose: 50.0 mg/kg/injection, schedule: Q01DX009 (ip), vehicle: water) was 134 and 145 % of control.

`[C-]#Cc1ccccc1.[C-]#Cc1ccccc1.[Cu+2]` was tested, and the survivor count [7] was 1 of 6, the survivor count [8] was 1 of 6 and the survivor count [9] was 0 of 6.

In the case of `C=CCCCCCCCCCCCCCC1=NCC[N+]1(CCO)CC(O)COc1cc(Cl)c(Cl)c(Cl)c1` (configuration not stated), the survivor count [5] is reported as 2 of 6.

In the case of `Cn1c(C(C)(C)OC(=O)Oc2ccccc2)cnc1[N+](=O)[O-]`, the survivor count [10] is reported as 6 of 6.

For `C/C(=N\NC(=S)N1CCN(c2ncccn2)CC1)c1ccccn1`, the survivor count (dose: 25.0 mg/kg/injection, schedule: Q01DX005 (ip), vehicle: saline with Tween-80) was 6 of 6, the survivor count (dose: 50.0 mg/kg/injection, schedule: Q01DX005 (ip), vehicle: saline with Tween-80) was 6 of 6 and the survivor count [11] was 0 of 6. For the same compound, the survivor count [12] was 0 of 6.

`CC1CC(c2ccc(Cl)cc2)C(c2ccc(Cl)cc2)C(=O)O1` (configuration not stated) was tested, and the survivor count [10] was 5 of 6 and the survivor count (dose: 200.0 mg/kg/injection, schedule: Q01DX009 (ip), vehicle: Klucel (hydroxypropylcellulose) (HPC)) was 2 of 6.

With `CCN1C=C/C(=C/c2cc3scc(-c4ccccc4)[n+]3c3ccccc23)c2ccccc21` the survivor count (dose: 0.65 mg/kg/injection, schedule: Q04DX003 (ip), vehicle: saline sonified) was 0 of 6, the survivor count (dose: 1.3 mg/kg/injection, schedule: Q04DX003 (ip), vehicle: saline sonified) was 0 of 6 and the survivor count (dose: 6.25 mg/kg/injection, schedule: Q04DX003 (ip), vehicle: saline with Tween-80) was 0 of 6. For the same compound, the survivor count [4] was 0 of 6, the survivor count (dose: 25.0 mg/kg/injection, schedule: Q04DX003 (ip), vehicle: saline with Tween-80) was 0 of 6 and the survivor count [7] was 0 of 6. The survivor count [8] was 0 of 6 and the survivor count [9] was 0 of 6.

With `O=C(CNC1=NCCN1)Nc1ccc(NC(=O)c2ccc(C(=O)Nc3ccc(NC(=O)CNC4=NCCN4)cc3)cc2)cc1` the T/C [11] was 133 and 138 % of control and the T/C [12] was 144 % of control.

In the case of `O=C(CBr)N1c2ccccc2Sc2ccc3ccccc3c21`, the T/C (dose: 25.0 mg/kg/injection, schedule: Q01DX009 (ip), vehicle: saline with Tween-80) is reported as 129 % of control [5 of 6 alive], the T/C [1] is reported as 129 and 140 % of control and the T/C [2] is reported as 122, 133 [5 of 6 alive], 140 % of control. For the same compound, the survivor count [2] was 6 of 6, the survivor count [3] was 3 of 6 and the survivor count (dose: 400.0 mg/kg/injection, schedule: Q01DX009 (ip), vehicle: saline with Tween-80) was 0 of 6.

With `CC(C)(C)N=C(c1ccccc1)N1CCCCC1` the survivor count [3] was 0 of 6.

Reference: PubChem BioAssay AID330 (DTP/NCI, 2004)
